According to PubChem BioAssay AID540256 (National Center for Advancing Translational Sciences (NCATS), 2011):
In all, about 300,000 compounds went through this assay and about 3,700 (1.2%) were called active. Inconclusive means that the source gave no clear call. Such entries were picked first, then a sample of the others. Calls come from the whole dose curve; tested in HEK293 cells. Potencies of inconclusive entries are doubtful fits and often do not repeat.
% is set by controls: 0 for no effect and ±100 for the full control effect; potency is the fitted concentration of half-maximal effect.

Assay: qHTS for Inhibitors of binding or entry into cells for Lassa Virus; note: nearly all actives have a fitted effect of over 50% in size
Settings: Lassa virus pseudotype entry inhibition, cell reporter; activity change, negative = inhibition: at 37.9 µM (top of the series) unless noted
For `C=CCc1c(OC)ccc2c1c(S(=O)(=O)c1ccc(C)cc1)cn2COC`, the Potency was inconclusive: 1.12 µM [inhibitor, full curve, poor fit].
For `Brc1ccc(-c2csc(/N=C/N3CCCC3)n2)cc1`, the Potency was inconclusive: 11.2 µM [inhibitor, single point].
In the case of `CSc1ccc(NC(=O)NCc2ccccc2)cc1`, the Potency is reported as inconclusive: 1.26 µM [activator, partial curve, poor fit].
In the case of `Clc1ccc(OC2CCN(Cc3nc(CC4CC4)no3)CC2)cc1`, the Potency is reported as inconclusive: 35.5 µM [inhibitor, single point].
With `C=CCN(c1ccccc1)S(=O)(=O)c1cccc(C(=O)Nc2cccc(C)n2)c1` the Potency was inconclusive: 22.4 µM [inhibitor, partial curve, poor fit].
With `CCOC(=O)CN1C(=O)c2cccnc2Oc2ccccc21` the “activity change, negative = inhibition” value was inactive: 19.6% [at 46.1 µM].
For `O=C(CCCn1c(=O)c2sccc2n(Cc2cccc(Cl)c2)c1=O)NCc1ccc2c(c1)OCO2`, the Potency was inconclusive: 20 µM [inhibitor, partial curve, poor fit].
With `Cc1cc(N/N=C/c2ccccc2Cl)nc(NCc2ccccc2)n1` the Potency was inconclusive: 17.8 µM [inhibitor, single point].
In the case of `CC(C)(C)NCCCCOc1ccccc1F`, the Potency is reported as inconclusive: 0.92 µM [inhibitor, full curve].
For `CCOCCCNC(=O)C(NC(=O)CC1NC(=O)NC1=O)c1ccc(Cl)cc1` (stereo not given), the “activity change, negative = inhibition” value was inactive: 4.83%.
For `O=C(Nc1ccccc1C(=O)N1CCCCCC1)c1ccccc1`, the “activity change, negative = inhibition” value was inactive: -3.71% [at 46.1 µM].
For `Cc1ccccc1NCC(=O)N/N=C/c1c[nH]c2ccccc12`, the Potency was inconclusive: 9.2 µM [inhibitor, partial curve].
For `C=CCNC(=S)N/N=C(\C)c1ccccn1`, the Potency was active: 0.206 µM.
With `CCOC(=O)C1=C(C)NC(=S)NC1c1ccco1` (stereo not given) the “activity change, negative = inhibition” value was inactive: -1.99% [at 46.1 µM].
With `CC1CN=C(NCc2ccccc2)S1` (stereo not given) the “activity change, negative = inhibition” value was inactive: 9.69%.
For `Cc1ccccc1N1CCN(c2ncnc3c2cnn3Cc2ccc(Cl)cc2)CC1`, the Potency was inconclusive: 15.8 µM [inhibitor, single point].
With `COc1ccc(CCNC2=C(Cl)C(=O)N(Cc3ccccc3)C2=O)cc1OC` the Potency was inconclusive: 7.94 µM [inhibitor, partial curve, poor fit].
With `CCCCSc1nc2sc3c(c2c(=O)n1-c1ccc(C)cc1)CCN(C)C3` the Potency was inconclusive: 35.5 µM [inhibitor, single point].
For `COc1cccc(CC2(CO)CCN(Cc3cccn3-c3cccnc3)CC2)c1`, the “activity change, negative = inhibition” value was inactive: 1.05%.
With `CCCCCC(=O)Nc1ccc(N2CCOCC2)c(S(=O)(=O)Nc2ccc(OC)cc2)c1` the Potency was inconclusive: 4.47 µM [inhibitor, full curve, poor fit].
For `COc1ccccc1N1CCN(Cc2cc3c(cc2Br)OCCO3)CC1`, the Potency was inconclusive: 11.2 µM [inhibitor, partial curve, poor fit].
In the case of `COc1ccc(CCNC(=O)CCn2c(=O)c3cccn3c3cccnc32)cc1OC`, the Potency is reported as “inactive”.
With `O=C(CSc1ccc2c(c1)OCCO2)NCCN1C(=O)CSC1=O` the Potency was inconclusive: 17.8 µM [activator, partial curve, poor fit].
With `Cc1ccc(NC(=S)Nc2ccc(C(C)C)cc2)cc1S(=O)(=O)N1CCCCCC1` the Potency was inconclusive: 0.164 µM [inhibitor, partial curve, poor fit].
In the case of `CC(C)(C)OC(=O)N1CCC(CNC(=O)Nc2ccccc2)CC1`, the Potency is reported as inconclusive: 11.2 µM [inhibitor, partial curve, poor fit].
In the case of `CCCCN(c1ccccc1)S(=O)(=O)c1ccc2c(c1)CC(C)N2C(=O)C1CC1` (stereo not given), the Potency is reported as inconclusive: 2.82 µM [inhibitor, full curve].
With `NC(=O)C1CCN(C(=O)Cn2c(-c3cccs3)cc3ccccc32)CC1` the “activity change, negative = inhibition” value was inactive: -10.7% [at 46.1 µM].
For `Cc1nc2ccccc2c(=O)n1/N=C/c1cn[nH]c1-c1ccccc1`, the Potency was inconclusive: 12.6 µM [inhibitor, partial curve, poor fit].
In the case of `O=C(NC1CC2CCCC(C1)N2C(=O)Nc1ccccc1Cl)C1CC1` (stereo not given), the “activity change, negative = inhibition” value is reported as inactive: 1.27% [at 46.1 µM].
With `Cc1ccc(S(=O)(=O)N2CCC(C(=O)OCC(=O)N(C)C3CCCCC3)CC2)cc1C` the Potency was inconclusive: 0.708 µM [inhibitor, partial curve, poor fit].
With `O=C(COC(=O)c1n[nH]c2ccccc12)NCc1ccccc1` the Potency was inconclusive: 5.8 µM [inhibitor, full curve].
In the case of `O=C(c1ccc(F)cc1F)N1CCN(S(=O)(=O)c2ccc3c(c2)OCCO3)CC1`, the “activity change, negative = inhibition” value is reported as inactive: -2.72%.
In the case of `COc1ccc(Cn2c(=O)oc3ccc(C)cc32)cc1OC`, the Potency is reported as inconclusive: 10.3 µM [inhibitor, partial curve].
For `CCOC(=O)C1=C(CN2CCN(c3cc(C)ccc3C)CC2)NC(=O)NC1c1ccc(Cl)cc1` (stereo not given), the Potency was inconclusive: 28.2 µM [inhibitor, single point].
In the case of `O=C(CSc1nnc(CNc2ccc(Cl)cc2)o1)Nc1nc2ccccc2s1`, the Potency is reported as inconclusive: 5.17 µM [inhibitor, partial curve, poor fit].
In the case of `CC(C)N1C(=O)C(Cc2nc3ccccc3c(=O)n2-c2ccccc2)c2ccccc21` (stereo not given), the Potency is reported as inconclusive: 23.1 µM [activator, single point].
For `COc1ccc(C)cc1NS(=O)(=O)c1ccc2[nH]c(=O)c(=O)[nH]c2c1`, the Potency was inconclusive: 7.94 µM [activator, partial curve, poor fit].
For `COc1cccc(N(CC(=O)NCc2ccco2)C(=O)CCC(=O)Nc2nccs2)c1`, the Potency was inconclusive: 14.1 µM [activator, single point].
In the case of `Cc1nn(Cc2ccc(F)cc2)c(C)c1NC(=O)c1cc(-c2ccc3c(c2)OCO3)on1`, the Potency is reported as inconclusive: 14.6 µM [inhibitor, partial curve, poor fit].
In the case of `C/C(=N\NC(=O)c1cc(Br)ccc1O)c1cccs1`, the “activity change, negative = inhibition” value is reported as inactive: -14.9% [at 46.1 µM].
In the case of `COc1ccc(N2C(=O)c3ccccc3NC23CCC(C)CC3)cc1` (stereo not given), the “activity change, negative = inhibition” value is reported as inactive: 8.62%.
For `COc1ccc(-n2cc(C(=O)c3ccccc3O)cn2)cc1`, the Potency was active: 3.98 µM.
For `O=C(O)C(Cc1cccs1)c1cccs1` (stereo not given), the Potency was inconclusive: 25.1 µM [inhibitor, single point].
With `O=C(Nc1ccc(F)c(Cl)c1)c1ccc2c(=O)n3c(nc2c1)CCCCC3` the Potency was inconclusive: 3.66 µM [activator, single point].
For `CCNC(=S)N(CCc1c(C)[nH]c2ccccc12)Cc1cc(OC)c(OC)c(OC)c1`, the Potency was inconclusive: 29.1 µM [inhibitor, single point].
For `COc1ccc(N2CCN(C(=O)Cn3nnc(-c4cccs4)n3)CC2)cc1`, the “activity change, negative = inhibition” value was inactive: -16%.
For `O=C(Cc1ccc(-n2c(=S)[nH]c3ccccc3c2=O)cc1)N1CCN(c2ccccc2)CC1`, the “activity change, negative = inhibition” value was inactive: -0.848%.
With `O=C(NCc1ccccc1F)C1CCN(c2nn3cc(-c4ccc(F)cc4)nc3s2)CC1` the Potency was inconclusive: 17.8 µM [activator, partial curve, poor fit].
With `c1ccc(-c2nc3ccccc3o2)nc1` the “activity change, negative = inhibition” value was inactive: 1.62%.
For `COc1cc(-c2cc(C(=O)N(C)Cc3ccccc3)c3ccccc3n2)cc(OC)c1OC`, the Potency was inconclusive: 35.5 µM [inhibitor, single point].
For `CC(Sc1nnnn1C)C(=O)NC1CCCC1` (stereo not given), the Potency was inconclusive: 1 µM [inhibitor, partial curve, poor fit].
With `CS(=O)(=O)Nc1cccc(C2=NN(S(=O)(=O)c3ccccc3)C(c3ccco3)C2)c1` (stereo not given) the “activity change, negative = inhibition” value was inactive: -15.8%.
With `O=C(Oc1cccc(/C=N/NC(=O)c2ccccn2)c1)c1ccc([N+](=O)[O-])cc1` the Potency was inconclusive: 35.5 µM [inhibitor, single point].
In the case of `COc1ccccc1Nc1nn2c(=O)c3ccc(C(=O)NCCC4=CCCCC4)cc3nc2s1`, the Potency is reported as inconclusive: 2.82 µM [inhibitor, full curve].
With `O=C(c1ccco1)N1CCN(CC(=O)N2c3ccccc3CCc3ccccc32)CC1` the “activity change, negative = inhibition” value was inactive: -12%.
In the case of `Cc1nc2cc(NC(=O)NCCCO)ccc2o1`, the “activity change, negative = inhibition” value is reported as inactive: 5.25%.
For `Cc1onc(-c2ccccc2)c1C(=O)OCC(=O)c1ccccc1`, the “activity change, negative = inhibition” value was inactive: -16.1%.
In the case of `Cc1ccccc1OCc1nc(-c2ccc(NC(=O)c3cccs3)cc2)no1`, the Potency is reported as inconclusive: 35.5 µM [inhibitor, single point].
With `COc1ccccc1NC(=O)c1oc2ccccc2c1NC(=O)C1CCCCC1` the “activity change, negative = inhibition” value was inactive: 7.41% [at 46.1 µM].
In the case of `CC1C(=O)N2CCCc3cc(S(=O)(=O)N4CCC(C(N)=O)CC4)cc1c32` (stereo not given), the Potency is reported as inconclusive: 10 µM [activator, partial curve, poor fit].
For `Cc1ccc2cc(CN(C(=O)c3cccc(Cl)c3)c3ccccc3)c(=O)[nH]c2c1`, the Potency was inconclusive: 35.5 µM [activator, partial curve, poor fit].
For `O=C(O/N=C/c1cccc([N+](=O)[O-])c1)C1CC1`, the Potency was inconclusive: 12.6 µM [activator, single point].
With `NC(N)=Nc1nc(-c2ccccc2)c2ccccc2n1` the “activity change, negative = inhibition” value was inactive: -22.9% [at 46.1 µM].
For `Cc1ccccc1CSc1nc2ccsc2c(=O)n1CCC(C)C`, the “activity change, negative = inhibition” value was inactive: 28.3% [at 46.1 µM].
In the case of `CCN(CC)S(=O)(=O)c1ccc2[nH]c(=O)cc(C(=O)Nc3ccccc3N3CCCC3)c2c1`, the Potency is reported as inconclusive: 2.82 µM [inhibitor, single point].
For `CC[n+]1c(C)sc2c(C)cc(C)cc21`, the “activity change, negative = inhibition” value was inactive: -11.6%.
With `CCCCN1C(=O)c2ccc(C(=O)NCCN3C(=O)S/C(=C\c4cccnc4)C3=O)cc2C1=O` the Potency was inconclusive: 25.9 µM [activator, single point].
In the case of `COc1ccc(-n2c(O)c(C=Nc3ccccc3)c3ccccc3c2=O)cc1`, the Potency is reported as inconclusive: 5.62 µM [inhibitor, single point].
In the case of `CCOc1cc(/C=C/C(=O)N(CC)CC(=O)NCc2cccs2)cc(Cl)c1OC`, the Potency is reported as inconclusive: 22.4 µM [inhibitor, single point].
In the case of `O=C(CC1(O)C(=O)N(C/C=C/c2ccccc2)c2ccccc21)c1ccccn1` (stereo not given), the Potency is reported as inconclusive: 13 µM [inhibitor, partial curve, poor fit].
